Data as given in PubChem BioAssay AID996 (National Center for Advancing Translational Sciences (NCATS), 2007).
Some of the results follow. Where no call is shown, the source marks the result inconclusive.

Molecular target: Caspase-1 (Homo sapiens) (UniProt P29466)
Assay: Concentration-Response Counterscreen for Redox Active Inhibitors of Caspase-1: Summary
Details: caspase-1 enzyme activity, redox counterscreen (DTT/Cys/catalase); at 57.5 µM (top of the series; the call rests on the fitted dose curve and not on this point)
From the text: NIH Molecular Libraries Screening Centers Network [MLSCN]
NIH Chemical Genomics Center [NCGC]
PI Name: Dr. James Wells,
Dr. Enrique Perez-Paya, Dr.Janice Williams, Dr. Dennis Wolan, a person
The caspases (Cysteine Aspartyl Protease) comprise a related family of 14 dimeric proteases that are critical mediators of apoptosis (programmed cell death) and inflammation. The caspases represent an important class of drug targets for stroke, ischemia, cancer and inflammatory diseases. […] One goal of this project was to identify compounds that act as allosteric inhibitors via stabilizing the procaspase form of the enzyme. Previous work in Well's laboratory has shown that such allosteric inhibitors can be identified and these act by binding at the dimer interface of enzyme (Hardy, Lam et al., 2004).
The biochemical assay was configured using purified caspase 1 at a high enzyme concentration to promote formation of the homodimers and thus facilitate the identification of allosteric inhibitors. The overall goal was to identify reversible inhibitors with better drug-like properties than the currently available set of aspartyl-containing peptidomimetics that covalently bind the active site. […] After initiation of the assay with substrate the plates were rapidly read using an automated robotic system (Kalypsys, Inc.) to maintain consistent timing. […] Product formation was also measured after 1 hour. […]

Compound | activity change, negative = inhibition
COc1ccc2c(c1)Cc1sc(NC(=O)c3cccs3)nc1-2 | -47.7%
CC(=O)[C@@H]1[C@@H]2C(=O)N(c3ccc(F)c(Cl)c3)C(=O)[C@@H]2C2c3ccccc3C=CN21 (some centres not stated) | -75.7%
